Some of these results come from one statement about several compounds together. For at least one compound, name, drawing or mass did not settle the structure.
Experiments:
[1] = system: fall armyworm (Spodoptera frugiperda); test: Test B: control of fall armyworm on maize plant, foliar spray; assay type: in vivo; conditions: very good to excellent levels of control efficacy
[2] = system: diamondback moth (Plutella xylostella); test: Test A: control of diamondback moth on radish plant, foliar spray; assay type: in vivo; conditions: 6 days, very good to excellent levels of control efficacy

Measured: control efficacy: feeding damage (40% or less feeding damage and/or 100% mortality)

Cc1cccn2c(=O)c(-c3cccc(C(C)C)c3)c([O-])[n+](Cc3cnc(Cl)s3)c12 [Compound 241]
≤ 40%: [1]; sprayed at 10 ppm | [1]; sprayed at 50 ppm | [2]; sprayed at 10 ppm | [2]; sprayed at 50 ppm

Cc1cccn2c(=O)c(-c3cccc([Si](C)(C)C)c3)c([O-])[n+](Cc3cnc(Cl)s3)c12 [Compound 244]
≤ 40%: [1]; sprayed at 10 ppm | [1]; sprayed at 50 ppm | [2]; sprayed at 10 ppm | [2]; sprayed at 50 ppm

Cc1cccn2c(=O)c(-c3cccc(-c4ccc(F)cc4F)c3)c([O-])[n+](Cc3cnc(Cl)s3)c12 [Compound 248]
≤ 40%: [1]; sprayed at 10 ppm | [1]; sprayed at 50 ppm | [2]; sprayed at 10 ppm | [2]; sprayed at 50 ppm

Cc1cccn2c(=O)c(-c3cccc(Oc4ccc(Br)cc4)c3)c([O-])[n+](Cc3cnc(Cl)s3)c12 [Compound 252]
≤ 40%: [1]; sprayed at 10 ppm | [1]; sprayed at 50 ppm | [2]; sprayed at 10 ppm | [2]; sprayed at 50 ppm

Cc1cccn2c(=O)c(-c3cccc(Oc4ccc(F)cc4Cl)c3)c([O-])[n+](Cc3cnc(Cl)s3)c12 [Compound 253]
≤ 40%: [1]; sprayed at 10 ppm | [1]; sprayed at 50 ppm | [2]; sprayed at 10 ppm | [2]; sprayed at 50 ppm

Cc1cccn2c(=O)c(-c3ccnc(-c4ccc(C(F)(F)F)cc4)c3)c([O-])[n+](Cc3cnc(Cl)s3)c12 [Compound 254]
≤ 40%: [1]; sprayed at 10 ppm | [1]; sprayed at 50 ppm | [2]; sprayed at 10 ppm | [2]; sprayed at 50 ppm

Cc1ccccc1-c1cccc(-c2c([O-])[n+](Cc3cnc(Cl)s3)c3c(C)cccn3c2=O)c1 [Compound 255]
≤ 40%: [1]; sprayed at 10 ppm | [1]; sprayed at 50 ppm | [2]; sprayed at 10 ppm | [2]; sprayed at 50 ppm

Cc1cccn2c(=O)c(-c3cccc(Cc4ccc(Cl)cc4)c3)c([O-])[n+](Cc3cnc(Cl)s3)c12 [Compound 259]
≤ 40%: [1]; sprayed at 50 ppm | [2]; sprayed at 10 ppm | [2]; sprayed at 50 ppm

Cc1cccn2c(=O)c(-c3cc(F)cc(-c4ccc(C(F)(F)F)cc4)c3)c([O-])[n+](Cc3cnc(Cl)s3)c12 [Compound 263]
≤ 40%: [1]; sprayed at 10 ppm | [1]; sprayed at 50 ppm | [2]; sprayed at 10 ppm | [2]; sprayed at 50 ppm

Cc1cccn2c(=O)c(-c3cc(Cl)cc(-c4ccc(C(F)(F)F)cc4)c3)c([O-])[n+](Cc3cnc(Cl)s3)c12 [Compound 264]
≤ 40%: [1]; sprayed at 10 ppm | [1]; sprayed at 50 ppm | [2]; sprayed at 50 ppm

Cc1cc(-c2c([O-])[n+](Cc3cnc(Cl)s3)c3c(C)cccn3c2=O)cc([Si](C)(C)C)c1 [Compound 265]
≤ 40%: [1]; sprayed at 10 ppm | [1]; sprayed at 50 ppm | [2]; sprayed at 10 ppm | [2]; sprayed at 50 ppm

COC(=O)c1cc(OC)cc(-c2c([O-])[n+](Cc3cnc(Cl)s3)c3c(C)cccn3c2=O)c1 [Compound 266]
≤ 40%: [1]; sprayed at 10 ppm | [1]; sprayed at 50 ppm | [2]; sprayed at 10 ppm | [2]; sprayed at 50 ppm

Cc1cccn2c(=O)c(-c3ccnc(-c4ccc(C(F)(F)F)cc4)n3)c([O-])[n+](Cc3cnc(Cl)s3)c12 [Compound 267]
≤ 40%: [1]; sprayed at 50 ppm | [2]; sprayed at 10 ppm | [2]; sprayed at 50 ppm

Cc1cccn2c(=O)c(-c3cccc(-c4ccccc4)c3)c([O-])[n+](Cc3cnc(Cl)s3)c12 [Compound 269]
≤ 40%: [1]; sprayed at 10 ppm | [1]; sprayed at 50 ppm | [2]; sprayed at 10 ppm | [2]; sprayed at 50 ppm

Cc1cccn2c(=O)c(-c3cc(-c4ccc(F)cc4)ccc3F)c([O-])[n+](Cc3cnc(Cl)s3)c12 [Compound 270]
≤ 40%: [1]; sprayed at 10 ppm | [1]; sprayed at 50 ppm | [2]; sprayed at 10 ppm | [2]; sprayed at 50 ppm

Cc1cccn2c(=O)c(-c3cccc(-c4cc(F)cc(F)c4)c3)c([O-])[n+](Cc3cnc(Cl)s3)c12 [Compound 271]
≤ 40%: [1]; sprayed at 10 ppm | [1]; sprayed at 50 ppm | [2]; sprayed at 10 ppm | [2]; sprayed at 50 ppm

Cc1cccn2c(=O)c(-c3cc(Cl)cc(-c4ccc(C(F)(F)F)nc4)c3)c([O-])[n+](Cc3cnc(Cl)s3)c12 [Compound 273]
≤ 40%: [1]; sprayed at 50 ppm | [2]; sprayed at 10 ppm | [2]; sprayed at 50 ppm

Cc1cccn2c(=O)c(-c3cc(Cl)nc(C(F)(F)F)c3)c([O-])[n+](Cc3cnc(Cl)s3)c12 [Compound 274]
≤ 40%: [1]; sprayed at 50 ppm | [2]; sprayed at 10 ppm | [2]; sprayed at 50 ppm

Cc1cccn2c(=O)c(-c3cc(-c4ccc(Cl)nc4)cc(C(F)(F)F)c3)c([O-])[n+](Cc3cnc(Cl)s3)c12 [Compound 279]
≤ 40%: [1]; sprayed at 50 ppm | [2]; sprayed at 50 ppm

Cc1cccn2c(=O)c(Cc3ccccc3)c([O-])[n+](Cc3cnc(Cl)s3)c12 [Compound 281]
≤ 40%: [1]; sprayed at 50 ppm | [2]; sprayed at 10 ppm | [2]; sprayed at 50 ppm

Cc1cccn2c(=O)c(-c3ccc(F)c(-c4ccc(C(F)(F)F)nc4)c3)c([O-])[n+](Cc3cnc(Cl)s3)c12 [Compound 290]
≤ 40%: [1]; sprayed at 10 ppm | [1]; sprayed at 50 ppm | [2]; sprayed at 10 ppm | [2]; sprayed at 50 ppm

Cc1cccn2c(=O)c(-c3cc(F)cc(C#N)c3)c([O-])[n+](Cc3cnc(Cl)s3)c12 [Compound 297]
≤ 40%: [1]; sprayed at 10 ppm | [1]; sprayed at 50 ppm | [2]; sprayed at 10 ppm | [2]; sprayed at 50 ppm

Cc1cccn2c(=O)c(-c3cccc(-c4ccc(Cl)nc4Cl)c3)c([O-])[n+](Cc3cnc(Cl)s3)c12 [Compound 307]
≤ 40%: [1]; sprayed at 10 ppm | [1]; sprayed at 50 ppm | [2]; sprayed at 10 ppm | [2]; sprayed at 50 ppm

Cc1cccn2c(=O)c(-c3ccc4ccccc4c3)c([O-])[n+](Cc3cnc(Cl)s3)c12 [Compound 314]
≤ 40%: [1]; sprayed at 10 ppm | [1]; sprayed at 50 ppm | [2]; sprayed at 10 ppm | [2]; sprayed at 50 ppm

Cc1ccc(-c2c([O-])[n+](Cc3cnc(Cl)s3)c3c(C)cccn3c2=O)cc1-c1ccc(C(F)(F)F)cc1 [Compound 316]
≤ 40%: [1]; sprayed at 10 ppm | [1]; sprayed at 50 ppm | [2]; sprayed at 10 ppm | [2]; sprayed at 50 ppm

Cc1ccc(-c2c([O-])[n+](Cc3cnc(Cl)s3)c3c(C)cccn3c2=O)cc1-c1ccc(C(F)(F)F)nc1 [Compound 317]
≤ 40%: [1]; sprayed at 10 ppm | [1]; sprayed at 50 ppm | [2]; sprayed at 10 ppm | [2]; sprayed at 50 ppm

Cc1ccc(-c2ccc(C(F)(F)F)cc2Cl)cc1-c1c([O-])[n+](Cc2cnc(Cl)s2)c2c(C)cccn2c1=O [Compound 319]
≤ 40%: [1]; sprayed at 50 ppm | [2]; sprayed at 10 ppm | [2]; sprayed at 50 ppm

Cc1cccn2c(=O)c(-c3cccc(-c4ccc(Cl)cc4C#N)c3)c([O-])[n+](Cc3cnc(Cl)s3)c12 [Compound 326]
≤ 40%: [1]; sprayed at 10 ppm | [2]; sprayed at 10 ppm

COc1ccc(-c2c([O-])[n+](Cc3cnc(Cl)s3)c3c(C)cccn3c2=O)cc1-c1ccc(C(F)(F)F)cc1 [Compound 329]
≤ 40%: [1]; sprayed at 10 ppm | [2]; sprayed at 10 ppm

From patent US8722690B2, “Mesoionic pesticides” (E I du Pont de Nemours and Company, priority 2009, dated 2014)
